PubChem BioAssay AID602196 – INSERM, 2012
Here is a random part of about 23,000 reagents. 455 of them (2%) were called active. 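Active includes both protection and sensitisation; some change values fall well beyond the stated -50 to +50 range.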 Unmarked entries are inactive. Not all columns of the deposit are shown. No sequences are given here. Not given: the amount of reagent.

Purpose: 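Knock-downs that protect lung cancer cells from cisplatin or sensitise them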
Cell system: human A549 lung cancer cells
Reagents: siRNA pair against human genes
Timing: 48 h transfection before cisplatin; time from cisplatin to read-out not stated
Conditions: cisplatin at a dose killing half of control-siRNA cells; exact dose and duration not given
Detection: 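Cisplatin cell death as a shift from the 50% death seen with control siRNA; siRNAs toxic or growth-blocking alone scored 0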
Scale: two-siRNA summed score (-2 to +2): higher = both siRNAs protect from cisplatin killing; -2 means both sensitise; mean protection from cisplatin (shift in death): higher = protection from cisplatin killing
Call rule: 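Each siRNA scores 0 if harmful alone by LDH or WST-1, otherwise +1 if it reduces and -1 if it increases cisplatin killing; a gene is active when both siRNAs agree (sum +2 or -2)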
Calls: active = both siRNAs shift cisplatin killing the same way; inactive = no consistent shift, or siRNA harmful alone

With knock-down of LOC150084, the screen gave two-siRNA summed score (-2 to +2) = 0; mean protection from cisplatin (shift in death) (%) = -4.7.
With knock-down of STOM the results were two-siRNA summed score (-2 to +2) = 1; mean protection from cisplatin (shift in death) (%) = 9.8.
With knock-down of OCEL1 the results were two-siRNA summed score (-2 to +2) = 0; mean protection from cisplatin (shift in death) (%) = 1.
For GPR146, the values are two-siRNA summed score (-2 to +2) = 0; mean protection from cisplatin (shift in death) (%) = 5.
Silencing of CNOT12 came out at: two-siRNA summed score (-2 to +2) = 0; mean protection from cisplatin (shift in death) (%) = 3.1.
TRH scored two-siRNA summed score (-2 to +2) = 0; mean protection from cisplatin (shift in death) (%) = -3.4.
LOC442146 gave two-siRNA summed score (-2 to +2) = 0; mean protection from cisplatin (shift in death) (%) = 4.1.
With knock-down of TSHZ2 the results were two-siRNA summed score (-2 to +2) = 0; mean protection from cisplatin (shift in death) (%) = 2.
Knock-down of C6orf52 came out at: two-siRNA summed score (-2 to +2) = -1; mean protection from cisplatin (shift in death) (%) = -7.9.
For REEP6 the deposit lists two-siRNA summed score (-2 to +2) = 1; mean protection from cisplatin (shift in death) (%) = 6.6.
Depletion of PTPRD gave: two-siRNA summed score (-2 to +2) = 0; mean protection from cisplatin (shift in death) (%) = 0.7.
For VPS9D1, the values are two-siRNA summed score (-2 to +2) = 0; mean protection from cisplatin (shift in death) (%) = 7.4.
SLC26A8 scored two-siRNA summed score (-2 to +2) = 0; mean protection from cisplatin (shift in death) (%) = 10.3.
Silencing of MAGEA4 came out at: two-siRNA summed score (-2 to +2) = 0; mean protection from cisplatin (shift in death) (%) = 7.1.
After knock-down of LOC401322 the results were two-siRNA summed score (-2 to +2) = 1; mean protection from cisplatin (shift in death) (%) = 9.4.
DHRS13 scored two-siRNA summed score (-2 to +2) = 0; mean protection from cisplatin (shift in death) (%) = 7.1.
LOC402633 showed two-siRNA summed score (-2 to +2) = 0; mean protection from cisplatin (shift in death) (%) = 10.1.
LOC389173 showed two-siRNA summed score (-2 to +2) = 0; mean protection from cisplatin (shift in death) (%) = -7.6.
Depletion of DNM1P5 gave: two-siRNA summed score (-2 to +2) = 1; mean protection from cisplatin (shift in death) (%) = 23.3.
Depletion of LINC00939 gave: two-siRNA summed score (-2 to +2) = 0; mean protection from cisplatin (shift in death) (%) = -1.6.
SCML4 scored two-siRNA summed score (-2 to +2) = 0; mean protection from cisplatin (shift in death) (%) = 4.1.
After knock-down of LZIC the results were two-siRNA summed score (-2 to +2) = 0; mean protection from cisplatin (shift in death) (%) = 2.3.
Knock-down of AMIGO1 gave: two-siRNA summed score (-2 to +2) = 1; mean protection from cisplatin (shift in death) (%) = 8.3.
Depletion of SLC38A9 came out at: two-siRNA summed score (-2 to +2) = 1; mean protection from cisplatin (shift in death) (%) = -0.5.
UFD1P1 scored two-siRNA summed score (-2 to +2) = 0; mean protection from cisplatin (shift in death) (%) = 14.4.
LOC442439 showed two-siRNA summed score (-2 to +2) = 0; mean protection from cisplatin (shift in death) (%) = 16.6.
Knock-down of FADS6 gave: two-siRNA summed score (-2 to +2) = 0; mean protection from cisplatin (shift in death) (%) = 3.4.
With knock-down of LOC389333, the record shows two-siRNA summed score (-2 to +2) = 0; mean protection from cisplatin (shift in death) (%) = 4.2.
XYLB gave two-siRNA summed score (-2 to +2) = 1; mean protection from cisplatin (shift in death) (%) = 17.5.
For LOC400019, the values are two-siRNA summed score (-2 to +2) = 0; mean protection from cisplatin (shift in death) (%) = 8.2.
With knock-down of RRP12, the screen gave two-siRNA summed score (-2 to +2) = 1; mean protection from cisplatin (shift in death) (%) = 7.4.
BTD scored two-siRNA summed score (-2 to +2) = -1; mean protection from cisplatin (shift in death) (%) = -5.6.
With knock-down of NECTIN1, the screen gave two-siRNA summed score (-2 to +2) = 0; mean protection from cisplatin (shift in death) (%) = 14.4.
Knock-down of PIGM resulted in: two-siRNA summed score (-2 to +2) = 0; mean protection from cisplatin (shift in death) (%) = 7.
For LOC391656 the deposit lists two-siRNA summed score (-2 to +2) = 1; mean protection from cisplatin (shift in death) (%) = 15.3.
Against C6 the deposit lists two-siRNA summed score (-2 to +2) = 1; mean protection from cisplatin (shift in death) (%) = 18.1.
PMVK scored two-siRNA summed score (-2 to +2) = 0; mean protection from cisplatin (shift in death) (%) = 1.3.
Silencing of LOC401715 resulted in: two-siRNA summed score (-2 to +2) = 1; mean protection from cisplatin (shift in death) (%) = 16.
Depletion of LOC441634 gave: two-siRNA summed score (-2 to +2) = 1; mean protection from cisplatin (shift in death) (%) = 8.8.
With knock-down of CRHR1, the record shows two-siRNA summed score (-2 to +2) = -2 (active); mean protection from cisplatin (shift in death) (%) = -18.2.
